What is called AC50 is the concentration at which the activity in the assay is half-maximal.

Molecules are shown by their SMILES. Some of the results follow. These are further read-outs of the screen, such as a control signal, another cell line or another target. No call is given for them. Compounds called inactive in the main read-out are mostly missing here. Potencies come from curve fits of mixed quality, noted in brackets.

This test can be described thus: qHTS Assay for Identifying the Cell-Membrane Permeable IMPase Inhibitors. The conditions noted are these: CHO-M1 cells, IP1 accumulation, HTRF TR-FRET ratio; measured here: donor channel 620 nm AC50.
On to `Cc1nn(C/C(C#N)=N\O)c(C)[n+]1N`, for which the AC50 was 0.631 µM [falling, full curve, poor fit]. The value for `CSC(=Nc1ccccc1)C1=C(O)COC1=O` was 0.0126 µM [rising, full curve, poor fit]. The same measure for `S=c1nc[nH]c2c1[nH]c1ccccc12`: 12.6 µM [rising, partial curve]; for `CCOC(=O)c1cnc(SCC(=O)Nc2cc(C(F)(F)F)ccc2N2CCOCC2)nc1N`: 25.1 µM [rising, single point]. For the molecule `CCN(CC)c1ccc(/C=N/Nc2nc(C)cc(=O)[nH]2)cc1`, the AC50 is 12.6 µM [falling, partial curve, poor fit]. The same measure for `CCOC(=O)c1sc(NC(=O)CSc2nc3c(cc2C#N)CCCCC3)c(C#N)c1C`: 15.8 µM [rising, single point]. The value for `O=C(Nc1ccc2nsnc2c1)c1cccs1` was 25.1 µM [falling, single point].

For the molecule `c1ccc(-c2cnn3c(-c4ccccc4)c(-c4ccccc4)nc3n2)cc1`, the AC50 was 35.5 µM [rising, single point].

`N#Cc1c(C(F)(F)F)cc(-c2cccs2)nc1SCC(=O)Nc1ccc(F)cc1`: the AC50 is 31.6 µM [rising, partial curve]. The value for `Cc1ccc2c(c1C)NC(=O)C2(O)CC(=O)c1ccc2c(c1)OCO2` (stereo not drawn) was 12.6 µM [falling, partial curve, poor fit]; that for `COC(=O)c1ccccc1NC(=O)CN1CCN(C(=O)c2ccco2)CC1` was 0.1 µM [falling, full curve, poor fit]; that for `O=C(CCNS(=O)(=O)c1ccc(Br)s1)Nc1ccc(Cl)cc1` was 5.01 µM [falling, single point]. The same measure for `Cc1nc(-c2ccc(S(=O)(=O)N3CCCCCC3)cc2)cs1`: 0.0158 µM [rising, full curve, poor fit]; for `CC(C)C(=O)Nc1ccc2c3c(cccc13)CC2`: 1.26 µM [falling, full curve, poor fit].

For the molecule `O=c1cc(N2CCc3ccccc32)[nH]c(=O)n1-c1ccccc1`, the half-maximal activity concentration (AC50) is 0.891 µM [falling, partial curve]. The value for `Cc1ccc(Oc2cc(C#N)c(C#N)cc2-n2nnc3ccccc32)cc1C` was 0.398 µM [falling, full curve, poor fit].

For the molecule `Cc1cc2c(C)ccc(C)c2nc1SCC(=O)c1cccs1`, the AC50 is 0.0126 µM [falling, full curve, poor fit]. The value for `COc1ccc(Cc2nnc(NC(=O)CSc3ccccc3)s2)cc1` was 0.00398 µM [falling, full curve, poor fit]; that for `CSc1ccccc1C(=O)Nc1ccc2c(c1)OCCO2` was 3.98 µM [rising, single point]. The value for `C=CCC(NCCCO)c1cccc(OC)c1OC` (stereo not drawn) was 0.02 µM [falling, full curve, poor fit]; that for `CCNc1nc(OCC)nc(N2CCC(Cc3ccccc3)CC2)n1` was 35.5 µM [rising, partial curve, poor fit]; that for `COc1ccc(-c2cc(C(F)(F)F)n3nc(-c4ccc(Cl)cc4)cc3n2)cc1OC` was 0.251 µM [falling, partial curve, poor fit]. The same measure for `O=c1oc2cc(O)ccc2c2ccccc12`: 12.6 µM [rising, partial curve]; for `O=C(OCc1cc2ccccc2[nH]c1=O)c1cccnc1`: 0.0126 µM [rising, full curve, poor fit]. For the molecule `Cc1oc(CSCC2CCCO2)cc1C(=O)O` (stereo not drawn), the AC50 is 3.98 µM [falling, partial curve].

Regarding `Cc1ccc(CSc2ccc(-c3cccs3)nn2)cc1`, the AC50 was 35.5 µM [rising, single point]. The same measure for `COCCCN1C(=O)c2ccccc2C1C(=O)NC1CCCCCC1` (stereo not drawn): 0.0126 µM [rising, full curve, poor fit]; for `Brc1cccc(-c2nnc3n2CCC3)c1`: 3.16 µM [rising, single point]; for `COc1ccc(-c2noc(COc3cc(C)c(Br)c(C)c3)n2)cc1OC`: 1.41 µM [falling, full curve, poor fit]. The value for `COc1ccccc1/C=C/C=N/NC(=O)c1ccc(=O)n(C)c1` was 3.16 µM [falling, partial curve, poor fit]; that for `COc1ccc(NC(=O)CCN2CCN(CCO)CC2)c(OC)c1` was 0.00501 µM [falling, full curve, poor fit]. On to `CCSc1ccccc1C(=O)Nc1cccnc1`, for which the AC50 was 0.0316 µM [falling, full curve, poor fit]. The value for `Nc1cc2sc(-c3ccc(C(=O)O)cc3)nc2cc1Cl` was 14.1 µM [rising, partial curve]; that for `COc1ccc(N(CC(=O)NC2CCCCCC2)S(=O)(=O)c2c(C)nn(C)c2C)cc1` was 0.0631 µM [rising, full curve, poor fit]. The same measure for `O=C(Nc1ccc(Cl)cc1)OCc1ccccn1`: 31.6 µM [falling, single point]. The same measure for `COc1ccc(Cl)cc1NC(=O)C(C)Sc1nncn1C` (stereo not drawn): 0.0501 µM [rising, full curve]; for `COC(=O)C1C(O)=C(C=NC2CCCCC2)C(=O)CC1(C)C` (stereo not drawn): 31.6 µM [falling, single point]. With `CCCCN1C(=O)C2C(C(=O)Nc3cccc(OC)c3)C3C=CC2(O3)C1C(=O)NC1CCCCC1C` (stereo not drawn), the AC50 was 0.158 µM [falling, single point]. The value for `CCSc1nnc(NC(=O)Cc2ccccc2OC)s1` was 31.6 µM [rising, single point].

Take `CCC(Sc1nc2ccccc2s1)C(=O)Nc1cc(C)on1` (stereo not drawn): the half-maximal activity concentration (AC50) is 0.794 µM [falling, full curve, poor fit]. The value for `Brc1ccc(-c2nn3c(-c4ccco4)nnc3s2)o1` was 20 µM [rising, partial curve, poor fit]; that for `Cc1cc(C)n(-c2ccc(C(=O)Nc3ccccc3N3CCOCC3)cc2)n1` was 3.16 µM [falling, full curve]. Regarding `CCN1CCN(CC(O)COC(C)C)CC1` (stereo not drawn), the AC50 is 6.31 µM [falling, single point]. The same measure for `COc1cccc(C2=NO[C@@H]3C(=O)N(Cc4ccccc4)C(=O)[C@H]23)c1OC`: 10 µM [falling, partial curve]; for `Cc1ccc(N(CC(=O)Nc2ccc(F)c(Cl)c2)S(=O)(=O)c2c(C)noc2C)cc1`: 0.0158 µM [falling, full curve, poor fit].

`COc1ccc(CCNC(=O)CCn2c(=O)[nH]c3cc(OC)c(OC)cc3c2=O)cc1OC`: the AC50 was 1.26 µM [falling, partial curve]. The same measure for `CN(C)S(=O)(=O)N(CC(=O)Nc1ccc2ccccc2c1)c1ccccc1`: 1.26 µM [falling, single point]; for `CN1CCC/C1=C/C=C1\SC(=S)NC1=O`: 14.1 µM [falling, single point]; for `CCCCNCC(=O)Nc1sc(C)c(C)c1C(=O)OCC`: 25.1 µM [falling, single point].

With `COc1cccc(-c2cc(C(=O)Nc3cccnc3)no2)c1`, the AC50 was 0.158 µM [falling, full curve, poor fit]. The same measure for `Cc1nc2ccc(S(=O)(=O)NCC(=O)N3CCOCC3)cc2s1`: 31.6 µM [rising, single point]. The same measure for `COc1cc2c(=O)n(CC3CCCO3)c(=O)n(CC(=O)Nc3ccc(F)cc3F)c2cc1OC` (stereo not drawn): 35.5 µM [falling, single point]; for `COc1ccc2[nH]cc(C(=O)CN3CCCCC3)c2c1`: 0.00501 µM [falling, full curve, poor fit]; for `COc1ccccc1OCc1ccc(C(=O)NCc2ccco2)o1`: 3.16 µM [rising, full curve, poor fit]. The value for `NS(=O)(=O)c1ccc(N2N=C(c3ccccc3)CC2c2ccc(F)cc2)cc1` (stereo not drawn) was 6.31 µM [rising, full curve]; that for `CCCCNC(=S)NNC(=O)CCn1nc(C)c(Br)c1C` was 3.16 µM [rising, partial curve, poor fit]. On to `COC(=O)c1[nH]c2cccc(OC)c2c1NC(=O)CN1CCOCC1`, for which the AC50 is 0.0631 µM [rising, full curve, poor fit]. The value for `CCn1cc(C(=O)OCC(=O)N(C)C2CCS(=O)(=O)C2)c(=O)c2ccc(C)nc21` (stereo not drawn) was 1 µM [falling, partial curve, poor fit]; that for `Cc1cc(C)c(Nc2cc(S(=O)(=O)O)c(N)c3c2C(=O)c2ccccc2C3=O)c(C)c1` was 35.5 µM [falling, single point]; that for `O=C(NCc1cccnc1)c1ccc(CN2CCc3ccccc3C2)cc1` was 0.0224 µM [falling, full curve, poor fit].

Regarding `COc1ccc(N2CCN(C(c3cccs3)C(C)NC(=O)c3ccco3)CC2)cc1` (stereo not drawn), the half-maximal activity concentration (AC50) was 1 µM [falling, full curve]. The same measure for `CCOc1cc(CO)c(Br)cc1OCC(=O)O`: 31.6 µM [falling, single point]; for `CC(NC(=O)Nc1ncccn1)(C(F)(F)F)C(F)(F)F`: 0.0447 µM [rising, full curve]; for `Cc1ccc2cccc(NC(=S)NC(=O)c3c(Br)cnn3C)c2n1`: 0.0891 µM [falling, full curve, poor fit]. The value for `Cc1ccc(-c2cc(C(=O)N(C)Cc3cnn(C)c3C)c3cc(Br)ccc3n2)cc1` was 11.2 µM [rising, partial curve]; that for `CCOC(=O)/C(N=Nc1c(Br)cc(Br)cc1Br)=C(\C)O` was 5.01 µM [falling, partial curve]; that for `O=C(NCC(=O)N(Cc1ccccc1)C(C(=O)NC1CCCCC1)c1ccco1)c1ccco1` (stereo not drawn) was 0.794 µM [falling, single point]. The same measure for `CCn1cc(C(=O)O)c(=O)c2cc(F)c(N3CCN(S(=O)(=O)c4ccc(NC(=O)OC)cc4)CC3)cc21`: 35.5 µM [rising, single point].

Source of the values: PubChem BioAssay AID901 (National Center for Advancing Translational Sciences (NCATS), 2007).
